Results are given in words; binding and its absence hold for the method and conditions named. Binding seen in cells or lysates may run through a third protein. Here binding means that the protein was enriched with, or labelled near, the bait; the list need not be complete.
Target: Alpha-enolase (ENO1) (human (endogenous in GBM cell lines)) (UniProt P06733)
Assay: affinity purification with mass spectrometry; U87MG cells treated with rhENO1 (1 μg/mL) for 0-12 h; IP of whole-cell lysates with ENO1-specific antibody-conjugated beads, silver staining, differential 70-130 kDa bands excised for MS; hits cross-referenced with the Membranome database

Protein sequences, listed by entry. Tags and fused reporters are not part of them. Residues count along the entry.
UniProt P06733: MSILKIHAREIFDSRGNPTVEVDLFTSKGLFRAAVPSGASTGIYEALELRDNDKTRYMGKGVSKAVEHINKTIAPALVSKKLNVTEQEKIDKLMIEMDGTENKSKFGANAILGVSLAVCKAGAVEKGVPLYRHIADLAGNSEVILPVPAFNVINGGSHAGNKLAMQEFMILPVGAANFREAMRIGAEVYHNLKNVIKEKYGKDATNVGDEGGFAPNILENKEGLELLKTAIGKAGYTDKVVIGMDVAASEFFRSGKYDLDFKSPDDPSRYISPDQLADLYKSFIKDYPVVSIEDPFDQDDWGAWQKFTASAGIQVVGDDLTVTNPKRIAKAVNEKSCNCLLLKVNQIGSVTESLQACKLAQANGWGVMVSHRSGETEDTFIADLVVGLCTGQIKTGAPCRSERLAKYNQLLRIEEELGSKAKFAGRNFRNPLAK
UniProt O00206, residues 24-839: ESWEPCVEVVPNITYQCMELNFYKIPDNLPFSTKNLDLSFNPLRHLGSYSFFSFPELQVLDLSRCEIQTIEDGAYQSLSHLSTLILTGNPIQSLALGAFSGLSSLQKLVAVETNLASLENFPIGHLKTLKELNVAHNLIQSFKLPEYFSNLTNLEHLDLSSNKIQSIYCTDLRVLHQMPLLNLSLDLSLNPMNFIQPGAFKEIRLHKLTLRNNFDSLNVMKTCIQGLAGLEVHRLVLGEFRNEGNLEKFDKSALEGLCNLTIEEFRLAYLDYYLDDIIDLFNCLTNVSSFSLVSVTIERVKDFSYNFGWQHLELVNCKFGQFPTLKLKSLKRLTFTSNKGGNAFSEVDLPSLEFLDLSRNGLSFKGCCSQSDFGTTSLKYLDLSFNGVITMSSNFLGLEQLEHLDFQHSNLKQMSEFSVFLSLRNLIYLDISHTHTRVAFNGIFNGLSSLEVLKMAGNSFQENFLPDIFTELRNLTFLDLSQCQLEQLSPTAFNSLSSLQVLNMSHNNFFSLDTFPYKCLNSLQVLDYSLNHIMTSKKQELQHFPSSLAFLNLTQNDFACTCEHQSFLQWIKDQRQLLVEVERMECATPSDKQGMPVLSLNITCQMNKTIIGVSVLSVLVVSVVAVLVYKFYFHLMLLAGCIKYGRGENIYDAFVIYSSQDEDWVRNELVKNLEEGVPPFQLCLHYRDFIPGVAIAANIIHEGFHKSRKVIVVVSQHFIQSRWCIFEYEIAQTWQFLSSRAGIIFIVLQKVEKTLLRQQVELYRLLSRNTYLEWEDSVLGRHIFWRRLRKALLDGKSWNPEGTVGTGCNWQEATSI
UniProt P30530, residues 26-894: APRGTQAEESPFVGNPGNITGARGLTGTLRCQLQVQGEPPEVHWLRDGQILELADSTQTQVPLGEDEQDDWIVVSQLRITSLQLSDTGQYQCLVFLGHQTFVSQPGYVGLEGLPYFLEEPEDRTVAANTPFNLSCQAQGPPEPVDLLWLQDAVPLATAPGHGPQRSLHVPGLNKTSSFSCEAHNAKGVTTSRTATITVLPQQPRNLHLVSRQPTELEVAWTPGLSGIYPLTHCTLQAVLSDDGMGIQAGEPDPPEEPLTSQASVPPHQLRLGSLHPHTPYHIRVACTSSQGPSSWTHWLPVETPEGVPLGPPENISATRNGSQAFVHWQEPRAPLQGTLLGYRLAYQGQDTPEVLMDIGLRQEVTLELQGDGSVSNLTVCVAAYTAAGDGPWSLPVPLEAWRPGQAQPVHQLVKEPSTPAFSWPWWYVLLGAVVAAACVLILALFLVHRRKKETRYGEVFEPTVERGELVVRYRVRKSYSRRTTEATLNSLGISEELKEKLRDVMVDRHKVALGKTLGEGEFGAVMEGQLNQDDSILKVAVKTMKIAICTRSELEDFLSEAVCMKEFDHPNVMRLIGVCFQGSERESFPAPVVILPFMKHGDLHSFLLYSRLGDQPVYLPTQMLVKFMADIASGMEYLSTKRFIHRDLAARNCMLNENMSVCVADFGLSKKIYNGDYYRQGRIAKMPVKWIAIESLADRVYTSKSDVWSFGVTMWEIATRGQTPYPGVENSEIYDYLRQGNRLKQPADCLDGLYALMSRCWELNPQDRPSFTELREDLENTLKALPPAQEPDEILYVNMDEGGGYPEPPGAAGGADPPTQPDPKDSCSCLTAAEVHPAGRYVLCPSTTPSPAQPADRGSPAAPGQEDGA

| binding | Substance |
| --- | --- |
| binds | Toll-like receptor 4 (TLR4) (from UniProt O00206 24-839) |
| binds | AXL (from UniProt P30530 26-894) (receptor) |

— PMC12827997
